Data published in patent US20200268832A1, “COMPOSITIONS FOR DELIVERY TO AND TREATMENT OF ATHEROSCLEROTIC PLAQUES” (Sanford Burnham Prebys Medical Discovery Institute, priority 2015, published 2020).
Entries after “also recorded” stand apart in the source; their conditions may differ. Part of at least one peptide drawing is inferred or uncertain, most often the ends. Where a SMILES comes first, the peptide text is derived from it. Bridges are numbered along the chain shown (N, C = ends).

Key:
[1] = biological target: T1, p32 protein (Homo sapiens, UniProt Q07021); experiment: Fluorescence polarization assay: displacement of FAM-TT1 from p32 (HTS, dose response, unlabeled peptide competition); type: binding; details: unlabeled peptides titrated up to 100 μM
T1 construct: 6xHis; host or cells: Rosetta-gami-2 cells (Novagen); an E. coli strain by own knowledge
T1 sequence (Q07021 74-282): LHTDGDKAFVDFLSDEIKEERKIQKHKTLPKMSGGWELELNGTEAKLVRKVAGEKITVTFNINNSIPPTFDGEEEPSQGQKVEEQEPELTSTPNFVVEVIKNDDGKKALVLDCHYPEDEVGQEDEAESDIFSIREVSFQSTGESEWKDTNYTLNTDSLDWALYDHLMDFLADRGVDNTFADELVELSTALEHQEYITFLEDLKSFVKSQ
Experimental: Fluorescence polarization (FP)-based assay was used for solution-based screening of compound libraries for p32 binding compounds. […] In FP assay, peptide conjugated with a fluorescent label (fluorescein-AM, FAM) is excited with polarized light. […] 6×-His-Tagged p^32 was expressed in Rosetta-gami-2 cells (Novagen). The protein was purified by IMAC using HIS-select resin (Sigma) with an imidizole gradient from 20-300 mM and eluted fractions were analyzed on analytical SDS-PAGE. […] Fluorescence polarization is given as milli-polarization (mP) value, which is obtained from equation (1):
mP=1000*(S−P)/(S+P), (Eq. 1)
The assay was initially set up in 20 μl well volume in 384 well plate (Corning Life Sciences), and measurements were carried out using PheraStar FS plate reader (BMG LABTECH, Ortenberg, Germany) in quadruplicate. […] Optimal concentration of fluorescein (FAM) labeled-peptides for the assay was determined by measuring the limit of detection (LOD), signal-to-background ratio (S/B), and stability of mP value over series of peptide concentrations. In the binding assay, the concentration of FAM-peptide was kept constant, and the FP was measured over the range of target protein concentrations. […]
FAM-TT-1 and p32 solutions are prepared just before experiment, and stored on ice during the screen; the peptide is shielded from light. • 1. […] Read plate on PheraStar FS […]

[2] = biological target: T2, b1b2 domain of neuropilin-1 (NRP-1) (Homo sapiens, UniProt O14786); experiment: Fluorescence polarization binding of FAM-peptide to NRP-1
T2 sequence (O14786 273-586 limits assumed): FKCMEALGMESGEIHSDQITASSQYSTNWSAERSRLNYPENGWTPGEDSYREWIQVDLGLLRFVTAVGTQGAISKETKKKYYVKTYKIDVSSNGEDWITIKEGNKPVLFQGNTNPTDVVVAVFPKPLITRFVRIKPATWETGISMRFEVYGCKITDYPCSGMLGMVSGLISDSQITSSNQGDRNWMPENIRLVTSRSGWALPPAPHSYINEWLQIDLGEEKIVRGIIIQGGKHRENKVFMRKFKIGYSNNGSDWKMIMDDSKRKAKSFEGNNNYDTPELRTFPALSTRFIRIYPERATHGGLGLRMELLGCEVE
Experimental: FIG. 8 is a graph showing specificity of TT1 binding. Specificity of TT1 was further evaluated by measuring the binding of FAM-TT1 to recombinant non-target protein, b1b2 domain of neuropilin-1 (NRP-1). The binding was studied by fluorescence polarization. […] Each data point presents average±S.D., n=4-6.
The assay was initially set up in 20 μl well volume in 384 well plate (Corning Life Sciences), and measurements were carried out using PheraStar FS plate reader (BMG LABTECH, Ortenberg, Germany) in quadruplicate. Peptide and protein stock solutions were diluted to desired concentration with assay buffer (50 mM BIS-TRIS pH 7.4, 0.05% Tween20, 1 mM DTT). FAM-labeled peptides were protected from light during the experiment to avoid photobleaching. Optimal concentration of fluorescein (FAM) labeled-peptides for the assay was determined by measuring the limit of detection (LOD), signal-to-background ratio (S/B), and stability of mP value over series of peptide concentrations. In the binding assay, the concentration of FAM-peptide was kept constant, and the FP was measured over the range of target protein concentrations. The peptide dissociation constant (KD) was obtained by fitting the binding curve into Michaelis-Menten kinetics in GraphPad Prism-software (GraphPad Software, Inc., CA, USA). […]

In the case of `C[C@@H]1NC(=O)CNC(=O)[C@H](CCCNC(=N)N)NC(=O)[C@H](CCCCN)NC(=O)[C@@H](N)CSSC[C@@H](C(=O)O)NC(=O)[C@H]([C@@H](C)O)NC(=O)[C@H](CO)NC(=O)[C@H](CCCNC(=N)N)NC1=O` [TT1, CKRGARSTC] (H-CKRGARSTC-OH; disulfide 1-9), the “inhibition (dislocation) of FAM-TT1 binding to p32 by unlabeled peptide” value [1] is reported as “inhibited in a dose-dependent manner; also recorded: dislocated FAM-TT1 from p32” and the “binding to b1b2 domain of NRP-1” value [2] is reported as “lack of binding”.
